The data set is described as follows: general procedure: peptide synthesis; TSTU. Conditions: conjugation step.

One substance from patent US20180079906A1 (Ecole Polytechnique Fédérale de Lausanne (EPFL), priority 2016, published 2018) can be followed below.

With c(RGDfK), the conjugation yield by setting is: (run 1) 60%; (run 2) 62%.
